# Screening data, single-dose tests

Data taken from ChEMBL document CHEMBL3988442, “University of Dundee, Small-Polar-MMV Screening Library” (2021).

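Assay of Toxoplasma gondii numbers, read through their beta-galactosidase reporter with a colour substrate. Tested at 10 µM. The record gives no direction; the compounds picked for IC50 retests had high values, so higher reads as fewer parasites. Of about 67,000 compounds tested this way, about 260 (0.38%) reached 50% or more in at least one test.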

Results are given as percent effect. The record does not define 0% and 100%; most values in the screen are far below 50% and negative numbers occur (in some assays of this library far below -100). The compounds are a random part of those screened.

| structure | percent effect |
|---|---|
| `[H][C@@]12COC[C@]1(COCc1cccnc1)CN(C(=O)c1cc(C)on1)C2` | -1.552 |
| `CC(NCc1cn(CCC(N)=O)c2ccccc12)c1nncn1C` (stereo not shown) | 1.082 |
| `Cn1cncc1CN1CCC(O)(Cn2nc(-c3cccs3)oc2=O)CC1.O=C(O)CC(O)(CC(=O)O)C(=O)O` | -0.493 |
| `CC(C)C(=O)NS(=O)(=O)c1ccc(F)c(C(F)(F)F)c1` | 2.95 |
| `CCC(O)CN1CCN(C(=O)Cc2cc(Cl)ccc2OC)CC1` (stereo not shown) | -2.892 |
| `Cc1cccc2cc(C(=O)N3CCN(S(=O)(=O)N(C)C)CC3)n(C)c12` | -8.718 |
| `CN(Cc1ccsc1)C(=O)c1nc(N2CCCC2)ncc1Cl` | -35.33 |
| `CCOC(=O)[C@H]1[C@@H](O)C(=O)N(C)C12CCN(C(=O)CC1CCCC1)CC2` | -19.61 |
| `Cc1nsc(N2CCCN(C(=O)NCc3cccnc3)CC2)n1` | 16.2 |
| `CCCN(CC(=O)N(C)C)C(=O)c1ccc(-c2nc(C)cs2)cc1` | 7.98 |
| `CC(=O)NCc1ccc(C(=O)N2CCCc3c(F)ccc(C)c32)o1` | 8.514 |
| `CC(=O)N1CCCN(C(=O)NC(C)c2csc3ccccc23)CC1` (stereo not shown) | -4.759 |
| `Cn1ccc(CN2CCC(NC(=O)C3CCCCC3)CC2)cc1=O` | 2.66 |
| `N#Cc1ccc(NCCNc2ccc(C(F)(F)F)cn2)nc1` | 47.28 |
| `O=C(c1coc(COc2cccc(F)c2)n1)N1CC[C@H](O)[C@@H](O)C1` | 3.347 |
| `O=C(NCCCN1CCCC1=O)c1nc(-c2ccc3cc[nH]c3c2)no1` | -18.39 |
| `Cc1nc(CN2CCc3ncnc(C)c3CC2)cs1.O=C(O)C(F)(F)F` | 2.636 |
| `Cc1nnc(CN(Cc2ccccc2Cl)C2CCCC2)o1` | 4.307 |
| `Cc1nc(CN2CCCC(NCc3ccc4c(c3)CCO4)C2)no1` (stereo not shown) | -16.4 |
| `COCCN1CCc2ncc(CNc3cc(N(C)C)ncn3)n2CC1` | 0.05319 |
| `Cc1cc(C(=O)N2CCCC3(COCCN(CCN(C)C)C3)C2)no1.O=C(O)C(F)(F)F.O=C(O)C(F)(F)F` (stereo not shown) | 10.31 |
| `Cc1ccc(NCc2cc(C#N)ccc2F)cc1-n1nnnc1C` | 3.647 |
| `Cc1nc(C2CCCN(C(=O)c3ccc(S(C)(=O)=O)cc3)C2)no1` (stereo not shown) | 8.581 |
| `CN(Cc1cscn1)C1CCN(C(=O)OC(C)(C)C)CC1` | -0.4764 |
| `CN(C)S(=O)(=O)CCCN1CCc2c(ncn2C2CC2)C1` | 9.605 |
| `O=C(c1nccc2ccccc12)N1CCCCC1Cn1cccn1` (stereo not shown) | 0.8259 |
| `O=C(Cn1ccc(C(=O)O)n1)Nc1c(Cl)cccc1Cl` | -51.11 |
| `CCS(=O)(=O)N1C[C@@H](O)[C@H](Oc2cccc(F)c2)C1` | -11.03 |
| `CC(=O)N1CCOC2(CCCN(Cc3ccc(N(C)C)cc3)C2)C1` (stereo not shown) | -21.69 |
| `Cc1nc(CCC(=O)NC2CCC2)cc(C2CCCNC2)n1` (stereo not shown) | 3.502 |
| `Cc1cn2c(n1)CCC(NC(=O)COCCOc1ccccc1)C2` (stereo not shown) | 7.093 |
| `CC(C)c1cc(CN2CCC(N)CC2)no1` | -12.29 |
| `CN(C)c1ncccc1C(=O)N1CCc2c(ncn2C2CC2)C1` | -1.393 |
| `COc1ccc(Cl)cc1NCC(=O)N(Cc1cccnc1)C1CC1` | 4.182 |
| `COc1cc(NCC(c2ccccn2)N(C)C)ncn1` (stereo not shown) | -15.93 |
| `Fc1ccc(Cn2ncc3c2CN(c2ncccn2)C3)cc1` | 5.792 |
| `CC(NCc1ccc(OCC(N)=O)cc1)c1ccc(Cl)cc1Cl.Cl` (stereo not shown) | -22.13 |
| `NC(=O)c1ccc(N2CCCCC2)c(NC(=O)c2cc(F)ccc2F)c1` | 1.638 |
| `CC[C@@H]1N(Cc2cc(OC)cc(OC)c2)CCC[C@]12CCC(=O)N2C` | -2.639 |
| `Fc1ccc(-c2nc(CN3CCCC3Cn3cncn3)co2)cc1F` (stereo not shown) | 23.36 |
| `CCC(C)(N)c1nc(=O)c(C)c(C)[nH]1` (stereo not shown) | 0.2938 |
| `Cc1ccsc1C(=O)N1CCC2(CC(C(=O)N(C)C(C)C)=NO2)C1` (stereo not shown) | 0.5455 |
| `NC(=O)c1ccc(CNC2CCCSC2)cc1` (stereo not shown) | -0.9709 |
| `O=C(O)C(F)(F)F.c1nc2c(c(NC3CCC3)n1)CCNCC2` | -0.05394 |
| `COc1cc(Cl)c(C)cc1-n1nnc(C(=O)O)c1-c1ccncc1` | -5.304 |
| `CN1CC(=O)N(c2ccsc2)CC12CCN(S(C)(=O)=O)C2.O=C(O)C(F)(F)F` (stereo not shown) | 4.547 |
| `CNc1snc(C)c1C(=O)N1CCCC(n2nc(C)nc2C)C1` (stereo not shown) | -3.99 |
| `[H][C@@]12CCCC[C@]1(O)CCN(C(=O)c1cc3ccccc3n1C)C2` | -11.27 |
| `CN(C)C(=O)COCC1CN(C2CCC2)Cc2ncn(C)c21.O=C(O)C(F)(F)F.O=C(O)C(F)(F)F` (stereo not shown) | 9.506 |
| `CC(=O)N1N=C(c2ccccc2)OC1C(=O)NCCc1ccc(O)cc1` (stereo not shown) | -4.867 |
| `Cn1cc(S(=O)(=O)NCc2ccsc2)cn1` | -1.034 |

Repeated from the top, 5 entries:

| structure | percent effect |
|---|---|
| `[H][C@@]12COC[C@]1(COCc1cccnc1)CN(C(=O)c1cc(C)on1)C2` | -1.552 |
| `CC(NCc1cn(CCC(N)=O)c2ccccc12)c1nncn1C` (stereo not shown) | 1.082 |
| `Cn1cncc1CN1CCC(O)(Cn2nc(-c3cccs3)oc2=O)CC1.O=C(O)CC(O)(CC(=O)O)C(=O)O` | -0.493 |
| `CC(C)C(=O)NS(=O)(=O)c1ccc(F)c(C(F)(F)F)c1` | 2.95 |
| `CCC(O)CN1CCN(C(=O)Cc2cc(Cl)ccc2OC)CC1` (stereo not shown) | -2.892 |